PubChem BioAssay AID1508588, Peter MacCallum Cancer Centre, 2020
This is an unselected part of about 18,000 reagents. 790 of all reagents (4.4%) were called active. 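Calls rest on a combination of fold-change classes in drug and vehicle arms, not all shown here.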 Unmarked entries are inactive. No sequences are given here.

Screen: 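Knock-downs boosting vemurafenib effects on melanoma cell growth or lactate release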 (primary screen)
Cells: human WM266.4 melanoma cells (BRAF V600 mutant)
Reagent: siRNA pool against human genes, 40 nM
Timing: 96 h from transfection to read-out
Challenge: vemurafenib 300 nM (about IC25), added 48 h after transfection, for 48 h; comparison arm got DMSO vehicle only
Measured: 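Ratios to non-targeting siRNA for cell gain, counted as DAPI nuclei after minus before drug and averaged over two replicates, and for absorbance-read medium lactate per cell; both binned into fold-change classes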
Direction: cell gain with vemurafenib: higher = more cell gain than with non-targeting siRNA; lactate per cell with vemurafenib: higher = more lactate made per cell
Active means: 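a knock-down counts as enhancing when its fold-change classes with vehicle and with vemurafenib, taken together, show a stronger drug effect on cell gain or lactate per cell; exact class pairs not stated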
Meaning of the calls: active = enhances vemurafenib effect; inactive = no enhancement seen

gene	cell gain with vemurafenib	lactate per cell with vemurafenib
PRSS37	1.13	0.8
GTF3C1	0.93	0.37
CFAP95	0.84	0.53
LRAT	0.73	0.55
SYNPO2	0.73	1.52
SLC71A1	0.57	1.2
CDH15	0.52	1.16
ADH7	0.17	1.92
RPN1	0.22	1.82
MRPL57	0.46 (active)	0.4
WASHC2A	0.61 (active)	0.56
IRF8	0.61	0.83
AGAP2	0.49	0.96
YRDC	0.04	1.12
NPM3	0.55	0.64
ARHGAP33	0.43	0.26
MACIR	0.67	2.01
OR10S1	0.85	1.2
MAMDC2	0.93	0.74
CFAP20DC	0.78	1.38
TMEM184C	0.92 (active)	0.7
GPR75	0.81	0.74
LYPD1	0.55	1.19
KALRN	0.69 (active)	0.56
NPHP1	0.23	2.21
DCP1B	0.55	1.19
HUWE1	0.76	0.52
GLTP	0.42	1.99
OTX1	0.74	0.82
CRP	0.75	0.91
RAD1	0.68	0.46
TBX3	0.53	0.94
ITPKC	0.52	0.64
H2AJ	0.5	1.99
GPR135	0.97	1.06
KEAP1	0.1	2.26
CPA5	0.79	0.91
ZC3H8	0.77	0.66
RPS27A	-0.02	1.52
FCGR1BP	0.18	1.25
IRF7	0.85	0.78
FGD3	0.51	0.75
WRNIP1	0.68	0.7
BLZF1	1.06	1.02
PDIA5	0.64	0.98
OLA1	0.83	0.83
CCNQ	0.46	1.29
BCAT1	0.82	1.04
GIMAP5	0.29	0.73
TIMP3	0.29	0.72
SRI	0.64	0.82

Already shown: entries from further up.
gene	cell gain with vemurafenib	lactate per cell with vemurafenib
LRAT	0.73	0.55
SYNPO2	0.73	1.52
SLC71A1	0.57	1.2
CDH15	0.52	1.16
ADH7	0.17	1.92
RPN1	0.22	1.82
MRPL57	0.46 (active)	0.4
WASHC2A	0.61 (active)	0.56
IRF8	0.61	0.83
AGAP2	0.49	0.96
YRDC	0.04	1.12

The listing continues.
gene	cell gain with vemurafenib	lactate per cell with vemurafenib
RADIL	0.71	0.66
IFNL1	0.54	1.45
BET1L	0.04	1.46
ZNF397	0.79 (active)	0.1
DENND10	0.44	1.35
ALG5	1.02 (active)	0.55
S1PR4	0.44	2.12
SEH1L	-0.22	0.3
PSMA8	0.68	0.88
EYS	0.43	0.29
PLA2G12A	0.69	0.6
TCIRG1	0.08	0.76
ATCAY	0.62	1.04
TPRN	0.38	0.47
PANX1	0.89	0.64
CRYGB	0.86	0.84
ACTL7A	0.28 (active)	0.3
CCDC86	0.63	1.21
ZNF576	0.44	2.56
B3GNT2	0.77	0.96
SLC24A4	0.58	1.54
LRRC14B	0.81	1.56
QNG1	0.16	2.42
GLT8D1	1.07	0.75
BABAM1	0.51	0.71
CER1	1.1	0.8
MXD3	1	0.73
GNPDA2	0.85	1.16
SMIM43	0.99	0.36
FMC1	0.49	1.02
VPS11	0.21	0.68
CNTNAP5	0.6	1.56
RNASE3	0.54	0.74
APOF	0.49	0.21
CHST5	0.63	0.98
POLI	1.13	0.65
RBPMS2	0.65	0.88
PRB4	1.02	0.7
ATP2B4	1.25	0.74
PDE5A	0.33 (active)	0.04
SCAPER	0.91	0.78
EIF2AK4	0.91	1.18
SCG2	0.75	0.8
PCCB	0.77	0.94
LTV1	0.54	0.49
MZT1	0.54	1.5
HOXA6	0.68	0.87
PPIE	0.95	1.36
AHSP	0.11	0.76
ASH2L	0.36	0.48
RPL11	-0.08	0.62
PRSS45P	1.1	0.77
C17orf58	0.64	0.4
HOXB6	0.43	2.09
GPBP1L1	0.16	0.89
CHCHD7	1.03	0.82
